Source: PubChem BioAssay AID602288 (National Center for Advancing Translational Sciences (NCATS), 2012)
This list was built around the results that the source calls inconclusive (neither active nor inactive); the mix of calls is not that of the screen. Where the call is inconclusive, the potency comes from a doubtful curve fit. Active and inactive are the calls of the source. Calls follow the shape of the dose curve; as a rule, active = well fitted cell-killing curve with a large enough effect (not every such curve was filed as active); inconclusive = small, poorly fitted or top-dose-only effect, or another doubt; inactive = no such curve, though single readings can be large or run the other way.

assay: qHTS Assay for Agonists of the Relaxin Receptor RXFP1: Cytotoxicity SAR; details: HEK293-RXFP1 viability, ATPLite luminescence, 72 h; activity change, negative = cytotoxicity: at 78.1 µM (top of the series)
Text: The relaxin hormone is involved in the variety of biological functions in normal tissues and diseases. The role of relaxin is well-established in female reproduction and parturition, mammary gland and endometrial development, maintenance of myometrial quiescence during pregnancy. Relaxin signaling through its G protein-coupled receptor (GPCR) RXFP1 results in ECM remodeling through regulation of collagen deposition, cell invasiveness, proliferation and overall tissue homeostasis. […] Recombinant human relaxin (rhRlx) is currently being tested in clinical trials as a protective agent in congestive heart failure, in treating severe preeclampsia, and as an anti-fibrotic agent in systemic sclerosis. In the primary screen, upon relaxin binding RXFP1 activation leads to the activation of adenylate cyclase (AC) via Gs. cAMP will activate PKA, which phosphorylates many signaling proteins. Thus, detection of cAMP increase is an easy and reliable indication of relaxin receptor activation. To screen for agonists of the relaxin receptor, a HEK293T cell line stably transfected with RXFP1 was used. RXFP1 activation was assayed by changes in cAMP levels as detected with a time-resolved fluorescence energy transfer (TR-FRET) cAMP detection kit. We conducted this followup assay to measure the effect of the lead candidates on cell health by measuring ATP levels (ATPLite). NIH Chemical Genomics Center [NCGC] NIH Molecular Libraries Probe Production Centers Network [MLPCN] MLPCN Grant: R03 MH085705-01A1 Assay Submitter (PI): Alexander Agoulnik
In this assay, the luciferase enzyme catalyzes the conversion of the added substrate D-luciferin to oxyluciferin and light with ATP. Thus, the emitted light is proportional to the ATP concentration. To evaluate the cytotoxic properties of the compounds, HEK293-RXFP1 cells were incubated with compounds for 72 h in growth media (DMEM 10% FBS, 1x Pen/Strep, 0.5 mg/mL G418) in 384-well format. After compound incubation, the levels of ATP in each well were measured with the addition of the ATPLite assay reagent.

Row | Structure (SMILES) | Potency | activity change, negative = cytotoxicity
1 | COc1ccccc1C(=O)N(C)c1ccccc1C(=O)Nc1cccc(C(F)(F)F)c1 | inconclusive: 47.1 µM [cytotoxic, partial curve] | –
2 | COc1ccccc1CNc1ccccc1C(=O)Nc1cccc(C(F)(F)F)c1 | active: 23.6 µM | –
3 | COc1cccc(OC)c1C(=O)Nc1ccccc1C(=O)Nc1cccc(C(F)(F)F)c1 | inconclusive: 37.4 µM [cytotoxic, partial curve] | –
4 | Cc1ccc(NC(=O)c2ccccc2NC(=O)C2CCCCC2)cc1 | inconclusive: 74.7 µM [cytotoxic, partial curve] | –
5 | O=C(Nc1ccccc1C(=O)Nc1cccc(C(F)(F)F)c1)c1ccccc1 | inconclusive: 74.7 µM [cytotoxic, partial curve] | –
6 | COc1ccc(C(=O)Nc2ccccc2C(=O)Nc2cccc(C(F)(F)F)c2)cc1 | inactive | –
7 | O=C(Nc1cccc(C(F)(F)F)c1)c1ccccc1NC(=O)C1CCC1 | inconclusive: 47.1 µM [cytotoxic, partial curve] | –
8 | CC(C)Oc1ccccc1C(=O)Nc1ccccc1C(=O)Nc1cccc(C(F)(F)F)c1 | inactive | –
9 | COc1cccc(NC(=O)c2ccccc2NC(=O)C2CCCCC2)c1 | inconclusive: 74.7 µM [cytotoxic, partial curve] | –
10 | COCCOc1ccccc1C(=O)Nc1ccccc1C(=O)Nc1cccc(C(F)(F)F)c1 | inactive | –
11 | Cc1ccccc1NC(=O)c1ccccc1NC(=O)C1CCCCC1 | inconclusive: 94 µM [cytotoxic, partial curve] | –
12 | O=C(Nc1cccc(C(F)(F)F)c1)c1ccccc1NC(=O)C1CC1 | inactive | –
13 | CCOc1ccccc1C(=O)Nc1ccccc1CNc1cccc(S(=O)(=O)C(F)(F)F)c1 | inactive | –
14 | CCSc1ccccc1C(=O)Nc1ccccc1C(=O)Nc1cccc(S(=O)(=O)C(F)(F)F)c1 | inconclusive: 9.4 µM [cytotoxic, partial curve] | –
15 | O=C(Nc1cccc([N+](=O)[O-])c1)c1ccccc1NC(=O)C1CCCCC1 | inactive | –
16 | O=C(Nc1cccc(SC(F)(F)F)c1)c1ccccc1NC(=O)C1CCCCC1 | inactive | –
17 | CSc1cccc(NC(=O)c2ccccc2NC(=O)C2CCCCC2)c1 | inactive | –

An excerpt from above in order of length of the SMILES, largest number first.
Row | Structure (SMILES) | Potency | activity change, negative = cytotoxicity
13 | CCOc1ccccc1C(=O)Nc1ccccc1CNc1cccc(S(=O)(=O)C(F)(F)F)c1 | inactive | –
8 | CC(C)Oc1ccccc1C(=O)Nc1ccccc1C(=O)Nc1cccc(C(F)(F)F)c1 | inactive | –
11 | Cc1ccccc1NC(=O)c1ccccc1NC(=O)C1CCCCC1 | inconclusive: 94 µM [cytotoxic, partial curve] | –

Following part.

Row | Structure (SMILES) | Potency | activity change, negative = cytotoxicity
18 | O=C(Nc1ccc(C(F)(F)F)cc1)c1ccccc1NC(=O)C1CCCCC1 | active: 11.8 µM | –
19 | COc1ccccc1C(=O)Nc1ccc(C(=O)Nc2cccc(C(F)(F)F)c2)cc1 | inconclusive: 9.4 µM [cytotoxic, partial curve] | –
20 | CC(C)(C)c1cccc(NC(=O)c2ccccc2NC(=O)C2CCCCC2)c1 | inconclusive: 29.7 µM [cytotoxic, partial curve] | –
21 | COc1ccccc1C(=O)Nc1ccccc1C(=O)N(C)c1cccc(C(F)(F)F)c1 | active: 29.7 µM | –
22 | COc1cccc(C(=O)Nc2ccccc2C(=O)Nc2cccc(C(F)(F)F)c2)c1 | inconclusive: 59.3 µM [cytotoxic, partial curve] | –
23 | COc1ccccc1C(=O)Nc1ccccc1C(=O)Nc1cccc(SC(F)(F)F)c1 | – | inconclusive: -31% [cytotoxic]
24 | O=C(Nc1cccc(F)c1)c1ccccc1NC(=O)C1CCCCC1 | inconclusive: 47.1 µM [cytotoxic, partial curve] | –
25 | O=C(Nc1ccccc1)c1ccccc1NC(=O)C1CCCCC1 | inconclusive: 47.1 µM [cytotoxic, partial curve] | –
26 | COCCOc1ccccc1C(=O)Nc1cccc(C(F)(F)F)c1 | inconclusive: 47.1 µM [cytotoxic, partial curve] | –
27 | O=C(NCc1cccc(C(F)(F)F)c1)c1ccccc1NC(=O)C1CCCCC1 | active: 11.8 µM | –
28 | CCOc1ccccc1C(=O)Nc1ccccc1C(=O)Nc1cccc(C(F)(F)F)c1 | inactive | –
29 | COc1ccccc1C(=O)Nc1ccccc1C(=O)Nc1cccc(C(F)(F)F)c1 | inactive | –
30 | CCOc1ccccc1C(=O)Nc1cccnc1C(=O)Nc1cccc(S(=O)(=O)C(F)(F)F)c1 | inconclusive: 18.8 µM [cytotoxic, partial curve] | –
31 | CCCCC(=O)Nc1ccccc1C(=O)Nc1cccc(C(F)(F)F)c1 | inconclusive: 29.7 µM [cytotoxic, partial curve] | –
32 | O=C(Nc1cccc(C(F)(F)F)c1)c1ccccc1NC(=O)C1CCCCC1 | active: 18.8 µM | –
33 | CCC(CC)C(=O)Nc1ccccc1C(=O)Nc1cccc(C(F)(F)F)c1 | active: 9.4 µM | –
34 | CCOc1ccccc1-c1nc2c(C(=O)Nc3cccc(S(=O)(=O)C(F)(F)F)c3)cccc2[nH]1 | inactive | –
